# Data as given in the supplement of paper PMC10849652.
# Chains of the proteins cited; added tags and fusions are not shown. Lines headed by an entry give the natural chain unless they say otherwise; changes in a name come on top.
# UniProt O95372: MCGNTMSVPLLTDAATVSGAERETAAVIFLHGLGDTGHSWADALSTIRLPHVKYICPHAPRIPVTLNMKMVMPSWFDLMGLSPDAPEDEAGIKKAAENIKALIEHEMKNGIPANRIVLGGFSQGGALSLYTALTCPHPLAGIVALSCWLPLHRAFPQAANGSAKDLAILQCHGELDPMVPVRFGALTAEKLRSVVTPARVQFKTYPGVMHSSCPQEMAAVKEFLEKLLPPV
# UniProt Q9H0U3: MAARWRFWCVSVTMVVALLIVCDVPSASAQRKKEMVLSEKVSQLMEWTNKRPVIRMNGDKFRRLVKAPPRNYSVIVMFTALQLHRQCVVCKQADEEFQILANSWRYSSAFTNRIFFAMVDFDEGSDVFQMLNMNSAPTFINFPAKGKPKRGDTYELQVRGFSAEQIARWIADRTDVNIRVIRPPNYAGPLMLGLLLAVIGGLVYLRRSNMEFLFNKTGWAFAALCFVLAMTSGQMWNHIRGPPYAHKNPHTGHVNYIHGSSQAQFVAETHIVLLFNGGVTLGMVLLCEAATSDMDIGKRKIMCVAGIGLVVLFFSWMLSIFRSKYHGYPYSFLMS
# UniProt O00754: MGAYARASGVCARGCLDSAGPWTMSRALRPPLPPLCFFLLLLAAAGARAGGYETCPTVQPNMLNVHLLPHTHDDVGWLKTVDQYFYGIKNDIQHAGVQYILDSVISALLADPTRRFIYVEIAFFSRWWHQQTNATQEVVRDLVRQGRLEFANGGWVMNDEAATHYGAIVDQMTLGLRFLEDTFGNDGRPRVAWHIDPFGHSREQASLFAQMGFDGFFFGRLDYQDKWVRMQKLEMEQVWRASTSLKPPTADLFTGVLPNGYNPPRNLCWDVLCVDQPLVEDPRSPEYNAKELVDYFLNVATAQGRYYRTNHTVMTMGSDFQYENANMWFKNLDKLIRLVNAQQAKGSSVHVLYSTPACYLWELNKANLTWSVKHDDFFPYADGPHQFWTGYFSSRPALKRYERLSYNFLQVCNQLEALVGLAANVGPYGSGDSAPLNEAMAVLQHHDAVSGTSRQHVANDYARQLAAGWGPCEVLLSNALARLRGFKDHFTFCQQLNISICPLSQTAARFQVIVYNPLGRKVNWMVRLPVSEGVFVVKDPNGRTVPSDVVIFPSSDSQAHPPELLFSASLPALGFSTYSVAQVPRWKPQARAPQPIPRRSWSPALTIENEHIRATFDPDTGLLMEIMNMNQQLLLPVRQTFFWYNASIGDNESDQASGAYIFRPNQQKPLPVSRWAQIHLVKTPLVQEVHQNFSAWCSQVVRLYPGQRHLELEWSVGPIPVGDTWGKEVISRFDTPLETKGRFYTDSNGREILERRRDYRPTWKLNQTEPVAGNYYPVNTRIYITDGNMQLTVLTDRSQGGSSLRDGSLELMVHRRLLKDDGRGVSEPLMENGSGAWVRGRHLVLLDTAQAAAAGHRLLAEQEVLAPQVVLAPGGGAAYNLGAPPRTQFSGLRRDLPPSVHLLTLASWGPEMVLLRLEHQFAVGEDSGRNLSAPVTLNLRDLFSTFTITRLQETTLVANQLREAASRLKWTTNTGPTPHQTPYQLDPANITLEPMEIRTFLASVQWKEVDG
# UniProt O60337: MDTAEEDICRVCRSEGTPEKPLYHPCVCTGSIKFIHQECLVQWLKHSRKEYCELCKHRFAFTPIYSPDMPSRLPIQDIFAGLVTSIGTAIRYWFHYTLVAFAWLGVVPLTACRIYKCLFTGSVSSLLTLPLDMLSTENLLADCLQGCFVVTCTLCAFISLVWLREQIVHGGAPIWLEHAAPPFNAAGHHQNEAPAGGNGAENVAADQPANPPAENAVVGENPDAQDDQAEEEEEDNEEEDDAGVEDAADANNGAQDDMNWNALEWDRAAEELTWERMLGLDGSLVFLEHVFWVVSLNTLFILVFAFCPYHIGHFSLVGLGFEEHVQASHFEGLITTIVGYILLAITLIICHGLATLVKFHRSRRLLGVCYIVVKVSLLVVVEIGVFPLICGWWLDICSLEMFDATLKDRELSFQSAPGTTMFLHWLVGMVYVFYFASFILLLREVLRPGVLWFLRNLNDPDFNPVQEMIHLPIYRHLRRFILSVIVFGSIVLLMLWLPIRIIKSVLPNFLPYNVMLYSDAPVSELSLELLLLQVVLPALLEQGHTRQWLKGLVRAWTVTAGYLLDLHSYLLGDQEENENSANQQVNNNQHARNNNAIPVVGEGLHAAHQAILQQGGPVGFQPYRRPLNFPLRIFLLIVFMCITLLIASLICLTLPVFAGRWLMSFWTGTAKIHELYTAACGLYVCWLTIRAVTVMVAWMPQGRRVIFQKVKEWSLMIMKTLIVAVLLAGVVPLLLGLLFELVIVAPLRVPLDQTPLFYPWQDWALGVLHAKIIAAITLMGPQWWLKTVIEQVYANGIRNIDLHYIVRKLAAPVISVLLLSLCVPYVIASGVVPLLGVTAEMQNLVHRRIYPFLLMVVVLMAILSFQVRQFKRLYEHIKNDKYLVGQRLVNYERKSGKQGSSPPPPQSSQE
# UniProt Q14244: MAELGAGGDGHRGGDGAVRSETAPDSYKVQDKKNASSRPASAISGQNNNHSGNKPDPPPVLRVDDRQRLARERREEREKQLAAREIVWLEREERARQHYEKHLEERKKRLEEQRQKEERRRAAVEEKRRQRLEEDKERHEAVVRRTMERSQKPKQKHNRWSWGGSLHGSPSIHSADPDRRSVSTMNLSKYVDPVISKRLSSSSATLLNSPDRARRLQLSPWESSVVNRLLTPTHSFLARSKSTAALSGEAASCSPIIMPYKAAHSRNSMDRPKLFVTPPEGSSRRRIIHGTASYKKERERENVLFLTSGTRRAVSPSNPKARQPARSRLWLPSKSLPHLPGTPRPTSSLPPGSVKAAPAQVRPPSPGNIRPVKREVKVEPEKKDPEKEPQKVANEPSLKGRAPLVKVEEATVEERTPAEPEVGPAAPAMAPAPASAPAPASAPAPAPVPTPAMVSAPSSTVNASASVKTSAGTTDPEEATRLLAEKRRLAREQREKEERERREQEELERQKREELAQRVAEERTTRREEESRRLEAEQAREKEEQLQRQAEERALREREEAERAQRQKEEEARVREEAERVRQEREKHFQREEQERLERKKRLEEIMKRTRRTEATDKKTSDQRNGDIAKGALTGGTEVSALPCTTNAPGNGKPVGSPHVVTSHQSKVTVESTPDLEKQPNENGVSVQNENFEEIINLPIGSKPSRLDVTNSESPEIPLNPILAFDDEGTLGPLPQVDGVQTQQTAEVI
# UniProt Q15691: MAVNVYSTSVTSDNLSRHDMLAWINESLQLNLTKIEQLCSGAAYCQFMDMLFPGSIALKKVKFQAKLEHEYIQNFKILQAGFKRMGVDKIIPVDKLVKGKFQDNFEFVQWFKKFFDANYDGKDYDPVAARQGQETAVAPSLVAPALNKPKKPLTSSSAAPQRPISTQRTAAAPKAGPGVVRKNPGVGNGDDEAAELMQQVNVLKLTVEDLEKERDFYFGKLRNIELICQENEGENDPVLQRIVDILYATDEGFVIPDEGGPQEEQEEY
# UniProt P46821: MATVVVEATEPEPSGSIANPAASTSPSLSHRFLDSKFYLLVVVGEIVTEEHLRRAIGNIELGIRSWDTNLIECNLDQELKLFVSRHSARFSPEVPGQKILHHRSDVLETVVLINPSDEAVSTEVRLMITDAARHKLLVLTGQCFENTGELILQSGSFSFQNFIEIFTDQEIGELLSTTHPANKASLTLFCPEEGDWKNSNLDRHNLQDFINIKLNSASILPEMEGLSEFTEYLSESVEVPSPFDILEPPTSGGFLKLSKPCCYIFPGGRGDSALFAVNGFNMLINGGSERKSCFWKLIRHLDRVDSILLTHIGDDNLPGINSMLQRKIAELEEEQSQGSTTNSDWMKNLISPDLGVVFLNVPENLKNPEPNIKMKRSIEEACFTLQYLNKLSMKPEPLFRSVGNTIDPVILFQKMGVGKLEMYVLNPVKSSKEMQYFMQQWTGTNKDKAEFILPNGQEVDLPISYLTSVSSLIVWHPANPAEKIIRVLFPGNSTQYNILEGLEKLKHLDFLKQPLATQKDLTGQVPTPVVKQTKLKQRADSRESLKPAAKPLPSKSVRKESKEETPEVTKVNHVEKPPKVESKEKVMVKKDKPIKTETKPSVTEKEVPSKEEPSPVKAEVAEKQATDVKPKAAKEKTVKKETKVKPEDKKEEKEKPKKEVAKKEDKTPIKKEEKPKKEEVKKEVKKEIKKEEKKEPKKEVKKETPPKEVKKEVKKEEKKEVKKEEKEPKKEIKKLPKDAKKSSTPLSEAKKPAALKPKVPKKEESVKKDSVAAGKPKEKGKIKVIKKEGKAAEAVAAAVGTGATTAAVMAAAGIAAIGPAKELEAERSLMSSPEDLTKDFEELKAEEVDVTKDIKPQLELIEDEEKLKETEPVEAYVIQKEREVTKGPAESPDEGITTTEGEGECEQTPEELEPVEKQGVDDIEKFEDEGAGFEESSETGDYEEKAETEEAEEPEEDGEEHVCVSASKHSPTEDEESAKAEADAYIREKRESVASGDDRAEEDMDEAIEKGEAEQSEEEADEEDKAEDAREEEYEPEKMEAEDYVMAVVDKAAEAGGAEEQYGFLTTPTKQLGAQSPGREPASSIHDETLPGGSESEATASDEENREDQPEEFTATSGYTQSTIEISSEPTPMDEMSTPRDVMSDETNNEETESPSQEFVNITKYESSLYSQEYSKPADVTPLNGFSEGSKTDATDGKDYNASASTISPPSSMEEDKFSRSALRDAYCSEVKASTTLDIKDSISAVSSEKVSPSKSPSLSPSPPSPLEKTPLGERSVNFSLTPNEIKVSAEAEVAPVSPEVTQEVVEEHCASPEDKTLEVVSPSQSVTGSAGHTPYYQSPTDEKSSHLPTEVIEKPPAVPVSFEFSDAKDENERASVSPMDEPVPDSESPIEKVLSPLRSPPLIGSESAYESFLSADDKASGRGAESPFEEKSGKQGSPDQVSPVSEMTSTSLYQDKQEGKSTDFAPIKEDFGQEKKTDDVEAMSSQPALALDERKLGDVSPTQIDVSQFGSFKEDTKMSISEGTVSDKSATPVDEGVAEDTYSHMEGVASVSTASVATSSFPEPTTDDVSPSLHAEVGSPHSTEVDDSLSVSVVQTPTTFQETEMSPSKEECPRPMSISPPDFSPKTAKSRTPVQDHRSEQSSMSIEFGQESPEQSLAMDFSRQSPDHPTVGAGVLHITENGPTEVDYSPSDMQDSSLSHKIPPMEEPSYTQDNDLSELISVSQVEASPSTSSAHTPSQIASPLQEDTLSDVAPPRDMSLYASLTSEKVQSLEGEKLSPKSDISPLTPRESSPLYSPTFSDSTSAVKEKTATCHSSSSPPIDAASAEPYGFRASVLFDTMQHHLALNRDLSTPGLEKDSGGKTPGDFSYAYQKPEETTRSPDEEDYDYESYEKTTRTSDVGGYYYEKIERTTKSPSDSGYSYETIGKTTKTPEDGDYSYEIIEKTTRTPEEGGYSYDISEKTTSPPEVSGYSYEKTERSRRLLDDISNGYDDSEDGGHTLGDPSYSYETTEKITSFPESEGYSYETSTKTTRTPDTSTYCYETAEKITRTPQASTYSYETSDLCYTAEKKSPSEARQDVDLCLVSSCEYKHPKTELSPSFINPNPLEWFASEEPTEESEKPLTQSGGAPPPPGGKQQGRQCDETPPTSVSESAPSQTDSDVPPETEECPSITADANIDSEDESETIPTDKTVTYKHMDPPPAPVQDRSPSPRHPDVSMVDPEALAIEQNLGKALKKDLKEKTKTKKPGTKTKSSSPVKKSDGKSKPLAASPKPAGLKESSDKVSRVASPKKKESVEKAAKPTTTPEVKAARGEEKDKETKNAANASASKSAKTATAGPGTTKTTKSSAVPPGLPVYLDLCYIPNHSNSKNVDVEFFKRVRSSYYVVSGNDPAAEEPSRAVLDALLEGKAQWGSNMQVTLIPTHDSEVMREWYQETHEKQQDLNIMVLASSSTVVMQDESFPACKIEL
# UniProt P49137, whole entry, looked up: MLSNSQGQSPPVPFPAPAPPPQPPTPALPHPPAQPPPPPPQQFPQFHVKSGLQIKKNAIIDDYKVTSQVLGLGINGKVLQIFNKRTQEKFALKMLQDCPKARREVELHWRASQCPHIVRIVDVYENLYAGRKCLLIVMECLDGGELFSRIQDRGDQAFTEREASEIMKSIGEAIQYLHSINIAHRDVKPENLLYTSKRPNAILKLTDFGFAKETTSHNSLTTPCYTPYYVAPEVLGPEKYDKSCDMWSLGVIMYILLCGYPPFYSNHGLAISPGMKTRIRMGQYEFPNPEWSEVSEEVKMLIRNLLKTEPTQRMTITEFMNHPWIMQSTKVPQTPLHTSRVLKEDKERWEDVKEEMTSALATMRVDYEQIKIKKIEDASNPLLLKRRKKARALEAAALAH
# This is one part of the list.
# Tests used:
# Assay in all cases: log2 fold change, soluble protein after heating vs DMSO (PISA); higher = thermal stabilisation; K562 lysate, 10 uM; active = over 0.2 and 3.5 SD of the protein, either way, in both replicates (recomputed)
# lapatinib = compound: CS(=O)(=O)CCNCc1ccc(-c2ccc3ncnc(Nc4ccc(OCc5cccc(F)c5)c(Cl)c4)c3c2)o1 [lapatinib]
# Method in brief: (§1)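 Values give the log-two fold change in thermal stability against solvent controls, from duplicates. Crude K562 extract at 1 mg/mL protein, made by dounce homogenisation in PBS pH 7.4 with 1 mM MgCl2, was treated with 10 μM compound for 30 min. After 3 min heating across 48°C-58°C, aliquots were pooled, adjusted to 0.5% NP-40 at 4°C and centrifuged at 21,000xg for 90 min. The supernatant was measured by TMTpro 16plex LC-MS/MS with channel sums equalised.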
# pictilisib = compound: CS(=O)(=O)N1CCN(Cc2cc3nc(-c4cccc5[nH]ncc45)nc(N4CCOCC4)c3s2)CC1 [pictilisib]
# Method in brief: as §1
# crizotinib = compound: C[C@@H](Oc1cc(-c2cnn(C3CCNCC3)c2)cnc1N)c1c(Cl)ccc(F)c1Cl [crizotinib]
# Method in brief: as §1
# [1] = compound: C[C@H](C1=CC=C(C=C1)C(=O)NC2=C3C=CNC3=NC=C2)N
# Method in brief: as §1
# duvelisib = compound: C[C@H](Nc1ncnc2nc[nH]c12)c1cc2cccc(Cl)c2c(=O)n1-c1ccccc1 [duvelisib]
# Method in brief: as §1
# gandotinib = compound: Cc1cc(Nc2cc(CN3CCOCC3)c3nc(C)c(Cc4ccc(Cl)cc4F)n3n2)n[nH]1 [gandotinib]
# Method in brief: as §1
# tozasertib = compound: Cc1cc(Nc2cc(N3CCN(C)CC3)nc(Sc3ccc(NC(=O)C4CC4)cc3)n2)n[nH]1 [tozasertib]
# Method in brief: as §1
# doramapimod = compound: Cc1ccc(-n2nc(C(C)(C)C)cc2NC(=O)Nc2ccc(OCCN3CCOCC3)c3ccccc23)cc1 [doramapimod]
# Method in brief: as §1
# bafetinib = compound: Cc1ccc(NC(=O)c2ccc(CN3CC[C@H](N(C)C)C3)c(C(F)(F)F)c2)cc1Nc1nccc(-c2cncnc2)n1 [bafetinib]
# Method in brief: as §1
# [2] = compound: Cc1cccc(CC(=O)N2CCc3c2ccc(-c2cn(C)c4ncnc(N)c24)c3F)n1
# Method in brief: as §1
# nilotinib = compound: Cc1cn(-c2cc(NC(=O)c3ccc(C)c(Nc4nccc(-c5cccnc5)n4)c3)cc(C(F)(F)F)c2)cn1 [nilotinib]
# Method in brief: as §1
# [3] = compound: Cc1nc(Nc2n[nH]c3c2CN(C(=O)N[C@H](CN(C)C)c2ccccc2)C3(C)C)c2sccc2n1
# Method in brief: as §1
# dasatinib = compound: Cc1nc(Nc2ncc(C(=O)Nc3c(C)cccc3Cl)s2)cc(N2CCN(CCO)CC2)n1 [dasatinib]
# Method in brief: as §1
# [4] = compound: Cc1ncc(-c2ccnc(Nc3ccc(S(C)(=O)=O)cc3)n2)n1C(C)C
# Method in brief: as §1
# [5] = compound: Cn1cc(-c2ccc3c(c2)CCN3C(=O)Cc2cccc(C(F)(F)F)c2)c2c(N)ncnc21
# Method in brief: as §1
# quisinostat = compound: Cn1cc(CNCC2CCN(c3ncc(C(=O)NO)cn3)CC2)c2ccccc21 [quisinostat]
# Method in brief: as §1
# tipifarnib = compound: Cn1cncc1[C@@](N)(c1ccc(Cl)cc1)c1ccc2c(c1)c(-c1cccc(Cl)c1)cc(=O)n2C [tipifarnib]
# Method in brief: as §1
# [6] = compound: NC(=O)Nc1cc(-c2cccc(F)c2)sc1C(=O)N[C@H]1CCCNC1
# Method in brief: as §1
# [7] = compound: NC(=O)c1cnc(N[C@@H]2CCCC[C@@H]2N)nc1Nc1cccc(-n2nccn2)c1
# Method in brief: as §1
# [8] = compound: NC1(c2ccc(-c3nc4ccn5c(=O)[nH]nc5c4cc3-c3ccccc3)cc2)CCC1
# Method in brief: as §1
Target,log2 fold change (lapatinib),log2 fold change (pictilisib),log2 fold change (crizotinib),log2 fold change [1],log2 fold change (duvelisib),log2 fold change (gandotinib),log2 fold change (tozasertib),log2 fold change (doramapimod),log2 fold change (bafetinib),log2 fold change [2],log2 fold change (nilotinib),log2 fold change [3],log2 fold change (dasatinib),log2 fold change [4],log2 fold change [5],log2 fold change (quisinostat),log2 fold change (tipifarnib),log2 fold change [6],log2 fold change [7],log2 fold change [8]
LYPLA2 (UniProt O95372),inactive: 0.121,inactive: -0.012,inactive: 0.005,inactive: 0.138,inactive: 0.016,inactive: -0.096,inactive: -0.028,inactive: 0.012,inactive: 0.039,inactive: -0.035,inactive: 0.041,inactive: -0.032,inactive: 0.047,inactive: 0.133,inactive: -0.001,inactive: 0.069,inactive: 0.005,inactive: -0.036,inactive: -0.062,inactive: -0.02
MAPK3 (UniProt P27361),inactive: -0.028,inactive: 0,inactive: -0.01,inactive: -0.021,inactive: -0.01,inactive: 0.089,inactive: -0.038,inactive: -0.023,inactive: 0.021,inactive: -0.043,inactive: 0.009,active: 0.272,inactive: -0.026,inactive: 0.141,inactive: -0.019,inactive: 0.016,inactive: -0.013,inactive: 0.022,inactive: 0.094,inactive: -0.003
MAP7D1 (UniProt Q3KQU3),inactive: 0.005,inactive: 0,inactive: -0.015,inactive: -0.026,inactive: 0,inactive: 0.013,inactive: 0.008,inactive: 0.027,inactive: -0.031,inactive: 0.029,inactive: 0.001,inactive: -0.018,inactive: -0.004,inactive: 0.039,inactive: 0.03,inactive: -0.028,inactive: 0.008,inactive: 0.02,inactive: -0.037,inactive: -0.01
MADD isoform 4 (UniProt Q8WXG6),inactive: 0.027,inactive: -0.037,inactive: -0.037,inactive: -0.015,inactive: -0.034,inactive: -0.017,inactive: -0.004,inactive: 0.021,inactive: -0.041,inactive: 0.026,inactive: -0.002,inactive: 0.011,inactive: -0.007,inactive: 0.002,inactive: 0.01,inactive: -0.047,inactive: -0.048,inactive: 0,inactive: 0.007,inactive: 0.017
LZTR1 (UniProt Q8N653),inactive: 0.177,inactive: -0.031,inactive: -0.092,inactive: 0.135,inactive: -0.033,inactive: -0.121,inactive: -0.023,inactive: 0.083,inactive: 0.005,inactive: 0.026,inactive: 0.016,inactive: 0.014,inactive: -0.063,inactive: -0.068,inactive: 0.008,inactive: -0.029,inactive: -0.036,inactive: 0.099,inactive: -0.033,inactive: -0.019
MAN2B2 (UniProt Q9Y2E5),inactive: 0.01,inactive: 0.021,inactive: 0,active: 0.595,inactive: -0.018,inactive: -0.38,inactive: 0.003,inactive: -0.028,inactive: -0.12,active: -0.546,inactive: -0.039,inactive: -0.173,inactive: 0.051,inactive: -0.004,inactive: 0.011,inactive: -0.033,inactive: -0.041,inactive: 0.04,inactive: 0.038,inactive: 0.033
MAGT1 (UniProt Q9H0U3),inactive: -0.012,inactive: 0.005,inactive: -0.04,inactive: -0.022,inactive: -0.033,inactive: 0.052,inactive: -0.026,inactive: 0.044,inactive: -0.059,inactive: 0.038,inactive: -0.006,inactive: -0.002,inactive: 0.009,inactive: -0.001,inactive: -0.007,inactive: -0.075,inactive: 0,inactive: -0.012,inactive: -0.003,inactive: -0.015
MAN2B1 (UniProt O00754),inactive: 0.013,inactive: -0.001,inactive: 0.074,inactive: 0,inactive: 0.076,inactive: 0.032,inactive: -0.03,inactive: -0.065,inactive: 0.013,inactive: -0.063,inactive: -0.078,inactive: -0.083,inactive: 0.037,inactive: -0.167,inactive: 0.044,inactive: -0.036,inactive: 0,inactive: 0.048,inactive: -0.019,inactive: -0.015
MARCHF6 (UniProt O60337),inactive: -0.039,inactive: 0.09,inactive: -0.118,inactive: -0.073,inactive: 0.103,inactive: -0.028,inactive: 0.004,inactive: 0.003,inactive: -0.105,inactive: -0.005,inactive: 0.164,inactive: -0.024,inactive: -0.136,inactive: 0.04,inactive: -0.169,inactive: -0.085,inactive: -0.179,inactive: -0.025,inactive: -0.023,inactive: -0.008
MAPK8IP3 (UniProt Q9UPT6),inactive: -0.009,inactive: -0.023,inactive: -0.022,inactive: 0.023,inactive: 0.016,inactive: -0.026,inactive: 0.068,inactive: 0.02,inactive: 0.034,inactive: -0.054,inactive: -0.003,inactive: 0.025,inactive: 0.035,inactive: -0.02,inactive: -0.011,inactive: 0.04,inactive: 0.043,inactive: -0.027,inactive: 0,inactive: 0.008
MALSU1 (UniProt Q96EH3),inactive: 0.048,inactive: 0.092,inactive: 0.006,inactive: -0.065,inactive: 0.034,inactive: 0.053,inactive: 0.049,inactive: -0.013,inactive: -0.087,inactive: 0.09,inactive: -0.023,inactive: 0.008,inactive: -0.052,inactive: 0.013,inactive: -0.018,inactive: -0.052,inactive: 0.022,inactive: 0,inactive: 0.003,inactive: 0.005
MAP7 (UniProt Q14244),inactive: 0.018,inactive: -0.002,inactive: 0.07,inactive: -0.045,inactive: -0.064,inactive: 0.126,inactive: -0.03,inactive: 0.11,inactive: 0,inactive: 0.022,inactive: 0.052,inactive: -0.097,inactive: 0.058,inactive: -0.09,inactive: 0.023,inactive: -0.002,inactive: -0.038,inactive: 0.024,inactive: -0.027,inactive: -0.168
MAPRE1 (UniProt Q15691),inactive: -0.004,inactive: 0.009,inactive: 0.022,inactive: 0.077,inactive: -0.002,inactive: -0.033,inactive: -0.003,inactive: -0.006,inactive: 0.032,inactive: -0.049,inactive: -0.006,inactive: 0.01,inactive: 0.005,inactive: -0.02,inactive: 0.001,inactive: 0.038,inactive: 0.036,inactive: -0.006,inactive: -0.011,inactive: 0.014
MAIP1 (UniProt Q8WWC4),inactive: -0.021,inactive: -0.041,inactive: -0.057,inactive: -0.036,inactive: -0.033,inactive: 0.05,inactive: 0.004,inactive: 0.051,inactive: -0.108,inactive: 0.011,inactive: 0.024,inactive: 0.006,inactive: -0.053,inactive: 0.037,inactive: 0.022,inactive: -0.094,inactive: -0.054,inactive: 0.064,inactive: -0.003,inactive: -0.028
MAP1B (UniProt P46821),inactive: 0.001,inactive: 0.009,inactive: 0,inactive: 0.033,inactive: 0.016,inactive: 0.011,inactive: 0.005,inactive: -0.018,inactive: -0.015,inactive: -0.047,inactive: -0.007,inactive: 0.023,inactive: 0.018,inactive: 0.012,inactive: 0.009,inactive: -0.033,inactive: 0.002,inactive: 0.005,inactive: -0.013,inactive: -0.001
MAPKAPK2 (UniProt P49137),inactive: -0.04,inactive: -0.05,inactive: -0.014,inactive: 0.046,inactive: 0.033,inactive: -0.03,inactive: 0.004,inactive: 0.092,inactive: -0.037,inactive: 0.018,inactive: 0.032,inactive: 0.068,inactive: -0.043,inactive: -0.008,inactive: 0,inactive: 0.01,inactive: 0.032,inactive: 0.148,inactive: 0.022,inactive: 0.008

# A different layout for some results above:
Target | log2 fold change (lapatinib) | log2 fold change (pictilisib) | log2 fold change (crizotinib) | log2 fold change [1] | log2 fold change (duvelisib) | log2 fold change (gandotinib) | log2 fold change (tozasertib) | log2 fold change (doramapimod) | log2 fold change (bafetinib) | log2 fold change [2] | log2 fold change (nilotinib) | log2 fold change [3] | log2 fold change (dasatinib) | log2 fold change [4] | log2 fold change [5] | log2 fold change (quisinostat) | log2 fold change (tipifarnib) | log2 fold change [6] | log2 fold change [7] | log2 fold change [8]
MAN2B2 (UniProt Q9Y2E5) | inactive: 0.01 | inactive: 0.021 | inactive: 0 | active: 0.595 | inactive: -0.018 | inactive: -0.38 | inactive: 0.003 | inactive: -0.028 | inactive: -0.12 | active: -0.546 | inactive: -0.039 | inactive: -0.173 | inactive: 0.051 | inactive: -0.004 | inactive: 0.011 | inactive: -0.033 | inactive: -0.041 | inactive: 0.04 | inactive: 0.038 | inactive: 0.033
MALSU1 (UniProt Q96EH3) | inactive: 0.048 | inactive: 0.092 | inactive: 0.006 | inactive: -0.065 | inactive: 0.034 | inactive: 0.053 | inactive: 0.049 | inactive: -0.013 | inactive: -0.087 | inactive: 0.09 | inactive: -0.023 | inactive: 0.008 | inactive: -0.052 | inactive: 0.013 | inactive: -0.018 | inactive: -0.052 | inactive: 0.022 | inactive: 0 | inactive: 0.003 | inactive: 0.005
